PubChem BioAssay AID1671195, Yale University | 2021
Shown is one part, drawn at random, of about 22,000 reagents tested. In the full data, about 1,510 (6.9%) are marked active. 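Active includes knockdowns raising or lowering LDL uptake; positive z-scores mean more uptake, negative mean less.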 Unmarked entries are inactive.

- Purpose: 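Knockdowns that increase or decrease uptake of fluorescent LDL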 (primary screen)
- Cells: human Huh7 hepatoma cells
- Knock-down reagent: siRNA pool against human genes, 18 nM
- Time to read-out: about 2 to 2.5 days of knockdown, then 8 h LDL uptake
- Treatment: DiI-labelled LDL at 30 µg/ml for 8 h, in lipoprotein-deficient serum medium
- Measurement: 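Fluorescent LDL signal imaged in cells, scaled to the plate median, robust z-score for each replicate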
- Scale: robust z-score: higher = more LDL uptake after knockdown
- Rule for the call: 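Active when two or more replicates show a robust z-score above 2 or below -2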

target | robust z-score, replicate 1 | robust z-score, replicate 2 | robust z-score, replicate 3
HINT3 | -2.13 | -0.411 | -0.502
BTNL8 | 1.75 | 1.32 | 1.67
ZNF568 | 0.703 | 0.319 | 0.741
DHX8 | -0.947 | -1 | -1.12
HNRNPA1P16 | -0.141 | 0.00269 | -0.354
LOC389899 (retired record) | 0.389 | 0.349 | 0.28
TMEM243 | -0.898 | -0.783 | -0.572
REEP3 | 2.41 | 1.77 | 1.9
CLMN | 0.704 | 0.805 | 0.168
MRAP2 | -0.451 | -0.0242 | -0.132
PARN | -1.52 | -1.37 | -1.02
KANSL1L | -0.165 | -0.243 | -0.415
CNBD2 | -1.49 | -2.24 | -1.54
SLC10A7 | -0.438 | -0.319 | -0.592
ZNF606 | 0.55 | 0.136 | 0.108
EPYC | 2.06 | -0.942 | 0.543
ANO9 | -1.21 | -1.23 | -1.55
MPP2 | 0.0582 | 0.738 | 0.42
PHPT1 | 0.94 | 0.784 | 1.93
CSF3 | 2.26 (active) | 3.64 | 2.36
CEACAM20 | -0.993 | 0.702 | -1.18
C5orf47 | 3.31 (active) | 2.66 | 0.81
C9orf40 | 1.68 | 0.796 | 3.22
SHROOM4 | -0.245 | -1.15 | -1.43

5 entries from above in another layout:
MPP2
- robust z-score, replicate 1: 0.0582
- robust z-score, replicate 2: 0.738
- robust z-score, replicate 3: 0.42

PHPT1
- robust z-score, replicate 1: 0.94
- robust z-score, replicate 2: 0.784
- robust z-score, replicate 3: 1.93

CSF3
- robust z-score, replicate 1: 2.26 (active)
- robust z-score, replicate 2: 3.64
- robust z-score, replicate 3: 2.36

CEACAM20
- robust z-score, replicate 1: -0.993
- robust z-score, replicate 2: 0.702
- robust z-score, replicate 3: -1.18

C5orf47
- robust z-score, replicate 1: 3.31 (active)
- robust z-score, replicate 2: 2.66
- robust z-score, replicate 3: 0.81

Continued:
target | robust z-score, replicate 1 | robust z-score, replicate 2 | robust z-score, replicate 3
GLIS3 | -0.741 | -0.474 | -0.768
CNOT11 | -0.547 | -0.383 | -0.57
F2 | -0.114 | -0.202 | -0.117
LINC00612 | 1.43 | 1.75 | 1.57
LOC440601 (retired record) | -1.14 | -1.32 | -1.43
CLEC4M | -1.38 | -0.508 | -2.26
CPEB1 | -0.94 | -1.5 | -1.53
COG1 | -0.38 | -0.337 | 0.549
LOC389149 (retired record) | 2.03 | 1.27 | 1.59
CDC42EP3 | 1.35 | 0.924 | -0.486
LOC442683 (retired record) | -0.00183 | 1.02 | 0.289
SLC35B1 | -1.26 | -0.76 | 1.03
TSG101 | 0.195 | -1.09 | -0.918
ZNF106 | 0.0559 | 0.977 | 1.28
MMS22L | -0.869 | -1.14 | -0.666
AAAS | -0.939 | -0.32 | 0.322
PIAS2 | 0.668 | 0.556 | 0.193
TNKS | -0.484 | -0.344 | -0.496
CDK2AP2P3 | -1.09 | -0.514 | -0.639
VPS4B | -0.408 | -0.454 | -0.228
TEX13A | 0.596 | -0.741 | 0.768
RPL11 | -1.34 | -1.36 | -0.879
